Reference: PubChem BioAssay AID504444 (National Center for Advancing Translational Sciences (NCATS), 2011)
Out of some 360,000 compounds screened, about 7,500 (2.1%) were called active. The shares of active, inactive and inconclusive entries below differ from those in the screen. The call rests on the fitted dose curve; in most records, active means well fitted inhibition curve with a large enough effect; inconclusive means small, poorly fitted or top-dose-only effect, or effect the other way; inactive means flat fitted curve, though single readings scatter. Where the call is inconclusive, the potency comes from a doubtful curve fit.

Test: Nrf2 qHTS screen for inhibitors; further: nearly all actives have a fitted effect of over 60% in size
Details: A549 ARE-Fluc reporter, luciferase luminescence, 18-24 h; activity change, negative = inhibition: at 46 µM (top of the series)
Outline: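 Nrf2 function is reported as luminescence of an ARE-controlled luciferase in A549 cells. Compounds were tested at several concentrations, and a CellTiter-Fluor read on the same wells flagged cytotoxicity.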
On the % scale 0 is the no-effect control and ±100 the full control effect; potency means the concentration at half of the fitted maximal effect.

Structure (SMILES)	Potency	activity change, negative = inhibition
Cc1cc(OC(=O)c2ccccc2Cl)cc(=O)n1C	active: 8.2 µM	–
COC(=O)c1ccc(OCC2c3cc(OC)c(OC)cc3CCN2C(=O)c2ccco2)cc1 (stereo unspecified)	inconclusive: 29.1 µM [falling, single point]	–
Cc1oc2cc([N+](=O)[O-])c(O)c([N+](=O)[O-])c2c1C(=O)c1ccc(Br)cc1	inconclusive: 20.6 µM [falling, single point]	–
CCc1cccc(NC(=O)CCS(=O)(=O)c2ccc3nc(C)sc3c2)c1	–	inactive: -0.855%
CN(Cc1ccc(OC(F)F)cc1)C(=O)c1ccc(S(=O)(=O)N(C)c2ccccc2)cc1	inconclusive: 20.6 µM [falling, partial curve]	–
Cc1ccc([N+](=O)[O-])cc1NC(=O)CN(C1CCCCC1)S(=O)(=O)c1ccc(Cl)cc1	inconclusive: 32.6 µM [falling, single point]	–
CCCCCCCC(=O)N/N=C(\C)c1ccc(O)cc1O	inconclusive: 29.1 µM [falling, single point]	–
COc1ccccc1N1CCN(C(=O)CSc2nnc(NC(=O)C3CC3)s2)CC1	inconclusive: 0.0291 µM [falling, full curve, poor fit]	–
C[n+]1ccn(CC(=O)c2ccc(Cl)cc2)c1	inconclusive: 25.9 µM [falling, partial curve, poor fit]	–
CCN(CC)C(=O)[C@H]1C[C@H](CC(=O)NCCc2ccccn2)C(=O)N2CCc3c([nH]c4cc(-c5ccco5)ccc34)[C@]12C	inconclusive: 29.1 µM [falling, single point]	–
Cc1ccc(NC(=O)Cn2c(SCc3ccc(F)cc3)nc3cccnc32)cc1F	inconclusive: 20.6 µM [activator, partial curve, poor fit]	–
Cc1ccc(/C=C(\NC(=O)c2ccccc2)C(=O)N2CCCCC2)cc1	inconclusive: 2.59 µM [activator, single point]	–
CCOC(=O)CC1COCCN1C(=O)CCc1nnc(-c2ccsc2)o1 (stereo unspecified)	inconclusive: 13 µM [activator, partial curve, poor fit]	–
O=C(O)c1ccc(NC(=O)c2cc3ccccc3o2)cc1	inconclusive: 29.1 µM [falling, single point]	–
O=c1c2ccccc2[nH]c(=S)n1CCCN1CCN(c2ccccc2F)CC1	inconclusive: 0.0731 µM [activator, partial curve, poor fit]	–
COc1ccc(C(=O)Nc2nnc(C(F)(F)F)s2)cc1	inconclusive: 2.06 µM [activator, full curve, poor fit]	–
c1ccc(N=c2nc(-c3ccccc3)n(-c3ccccc3)s2)cc1	inconclusive: 32.6 µM [falling, partial curve, poor fit]	–
Cc1ccc(-c2cc(C(F)F)nc(S(C)(=O)=O)n2)cc1	inconclusive: 25.9 µM [falling, single point]	–
COc1ccc2nc(C)cc(SCC(=O)Nc3c(C)cccc3C)c2c1	inconclusive: 0.461 µM [falling, partial curve, poor fit]	–
CC(=O)c1ccc(NC(=O)CCc2c(C)nn(-c3ccc(N4CCCCC4)nn3)c2C)cc1	inconclusive: 13 µM [activator, partial curve, poor fit]	–
CCN(CC)S(=O)(=O)c1cc(NC(=O)CNc2c(C)n(C)n(-c3ccccc3)c2=O)ccc1C	inconclusive: 5.8 µM [activator, single point]	–
C=CCc1ccc(OCCCOc2ccc(C)cc2OC)c(OC)c1	inconclusive: 0.13 µM [activator, full curve, poor fit]	–

Sorted by length of the SMILES (rising): four of the compounds above
Structure (SMILES)	Potency	activity change, negative = inhibition
Cc1cc(OC(=O)c2ccccc2Cl)cc(=O)n1C	active: 8.2 µM	–
c1ccc(N=c2nc(-c3ccccc3)n(-c3ccccc3)s2)cc1	inconclusive: 32.6 µM [falling, partial curve, poor fit]	–
Cc1ccc(NC(=O)Cn2c(SCc3ccc(F)cc3)nc3cccnc32)cc1F	inconclusive: 20.6 µM [activator, partial curve, poor fit]	–
CCN(CC)S(=O)(=O)c1cc(NC(=O)CNc2c(C)n(C)n(-c3ccccc3)c2=O)ccc1C	inconclusive: 5.8 µM [activator, single point]	–

Further entries follow:

Structure (SMILES)	Potency	activity change, negative = inhibition
COc1ccc(C2CC(=O)c3ccccc3O2)cc1 (stereo unspecified)	inconclusive: 13 µM [falling, single point]	–
O=C1/C(=C/c2ccc(N3CCOCC3)o2)SC(=Nc2ccccc2)N1CCc1c[nH]c2ccccc12	inconclusive: 29.1 µM [falling, single point]	–
Cc1ccccc1C(=O)Nc1sc2c(c1C(=O)O)CCC2	inconclusive: 18.4 µM [falling, single point]	–
CCOC(=O)C1=C(C)Nc2sc(C(=O)c3ccc(OC)cc3)c(N)c2C1c1ccc(C(=O)OC)cc1 (stereo unspecified)	inconclusive: 4.61 µM [falling, full curve, poor fit]	–
CC12CCC(C(=O)N3CCN(C(c4ccccc4)c4ccccc4)CC3)(OC1=O)C2(C)C (stereo unspecified)	active: 23.1 µM	–
CCOC(=O)c1cnc2c(Cl)cc(Cl)cc2c1NCCCN1CCOCC1	–	inactive: -16.8%
COc1ccc(NC(=O)CCSc2ccc(F)cc2)cc1	inconclusive: 23.1 µM [activator, partial curve]	–
O=[N+]([O-])c1ccc(N/N=C/c2cccc(O)c2O)cc1	inconclusive: 23.1 µM [activator, partial curve]	–
Oc1ccc(/C=N/Nc2nc(-c3ccccc3F)nc3ccccc23)c(O)c1	inconclusive: 20.6 µM [falling, single point]	–
Cc1ccc(CNC(=O)C2CCCN2S(=O)(=O)c2ccc(Cl)cc2)cc1 (stereo unspecified)	inconclusive: 20.6 µM [falling, single point]	–
Cc1c(O)ccc(C(=O)CN2CCN(Cc3ccccc3)CC2)c1O	inconclusive: 29.1 µM [falling, single point]	–
O=C(c1ccc2nc[nH]c2c1)N1CCN(c2ncc(C(F)(F)F)cc2Cl)CC1	inconclusive: 29.1 µM [falling, single point]	–
COc1ccc(/C=C/C(=O)Nc2cccc(S(=O)(=O)NC3=NCCCCC3)c2)cc1OC	inconclusive: 29.1 µM [falling, single point]	–
CCCc1cc(=O)[nH]c(SCC(=O)Nc2cc(S(=O)(=O)N3CCCCC3)ccc2Cl)n1	inconclusive: 16.4 µM [falling, partial curve]	–
Clc1ccc(Cc2nnc(-c3cccs3)o2)cc1	inconclusive: 23.1 µM [activator, single point]	–
COc1ccc(C)c(-n2c(=O)n(Cc3ccccc3)c(=O)c3[nH]cnc32)c1	–	inactive: 8.1%
O=C(Nc1nncs1)c1cc2c(s1)CCC2	inconclusive: 2.06 µM [activator, full curve]	–
COCC(C)NC(=O)C1CC(c2cccc(Br)c2)=NO1 (stereo unspecified)	inconclusive: 3.66 µM [falling, partial curve, poor fit]	–
CCn1c(O)c(C=Nc2ccccc2)sc1=S	inconclusive: 7.31 µM [activator, partial curve]	–
CCOc1cc(C(=O)NCCN2C(=O)S/C(=C\c3cccnc3)C2=O)cc(OCC)c1OCC	–	inactive: -7.18%
CS(=O)(=O)N(CC(=O)N1CCCC1)c1cc(C(F)(F)F)ccc1Cl	inconclusive: 9.2 µM [activator, partial curve, poor fit]	–
C/C(CC(=O)Nc1ccc(C)c(Cl)c1)=N\NC(=O)Cc1ccccc1	inconclusive: 3.26 µM [activator, partial curve, poor fit]	–

Structure (SMILES)	Potency	activity change, negative = inhibition
COc1ccc(-n2nc3ccc(NS(C)(=O)=O)cc3n2)cc1Cl	inconclusive: 23.1 µM [activator, partial curve, poor fit]	–
CCOC(=O)COc1c(C(=O)OC)sc2ncccc12	–	inactive: -4.75%
CCOc1ccc(C2C=C(c3ccc(C)cc3)Nc3nnnn32)cc1 (stereo unspecified)	–	inactive: -16.1%
O=C(Nc1ccc2oc(-c3ccc(Cl)cc3)nc2c1)c1ccc2ccccc2c1	inconclusive: 25.9 µM [activator, partial curve]	–
COc1ccc(C(=O)Nc2ccccc2N2CCN(C(=O)c3ccccc3)CC2)cc1Br	inconclusive: 29.1 µM [falling, single point]	–
CCc1c(C)nc(SCCOc2ccc(OC(C)C)cc2)[nH]c1=O	–	inactive: -17.9%
CCN(CC)CCCNC(=O)c1cc(Nc2ccc(OC)cc2)nc2ccccc12	–	inactive: -10.4%
CCN(CC)c1cc(C)c2cc(NC(=O)c3ccc(F)cc3Cl)ccc2n1	–	inactive: -9.54% [at 9.27 µM]
O=C(Nc1ccc2ccccc2c1)c1ccc(Br)o1	inconclusive: 2.91 µM [activator, full curve]	–
CCOc1ccc(C(NC(C)=O)c2ccc(OC)c(OC)c2)cc1 (stereo unspecified)	–	inactive: -4.77%
CCOc1ccc(S(=O)(=O)N2CCN(c3nc(-c4ccccc4)nc4ccccc34)CC2)cc1OCC	–	inactive: -2.88%
Fc1ccccc1NC(=S)NCCc1ccccc1	inconclusive: 0.103 µM [activator, full curve, poor fit]	–
COc1ccc(CN2CC(C(=O)NCc3ccccn3)CC2=O)cc1 (stereo unspecified)	inconclusive: 13 µM [activator, partial curve, poor fit]	–
Cc1cc(C)c2sc(NC(=O)c3ccc([N+](=O)[O-])o3)nc2c1	–	inactive: 10.6%
O=C(O)c1cccc(NC(=O)c2cccc(S(=O)(=O)N3CCc4ccccc43)c2)c1	–	inactive: 9.85%
O=C(NCCc1ccccc1)c1ccc(Cl)c(S(=O)(=O)N2CCCC2)c1	inconclusive: 29.1 µM [falling, single point]	–
CCOc1ccc(/C=C/C2=NNC(=O)CC2)cc1	inconclusive: 13 µM [activator, partial curve]	–
Cn1c(=O)oc2cc(S(=O)(=O)N3CCC(C(=O)N4CCN(c5ccc(Cl)cc5)CC4)CC3)ccc21	active: 18.4 µM	–
CCOc1ccccc1NC(c1nnc(-c2ccccc2)o1)c1ccc(F)cc1Cl (stereo unspecified)	–	inactive: 3.88%
O=C(O)CCc1ccc(S(=O)(=O)Nc2ccccc2C(=O)NCCc2ccccc2)cc1	inconclusive: 18.4 µM [activator, partial curve]	–
CC(=O)Nc1ccc(S(=O)(=O)Nc2cc(S(=O)(=O)N3CCCCC3)ccc2O)cc1	–	inactive: 12.5%
COc1ccc(-n2nc(C(=O)NCC(=O)NCc3ccco3)c3ccccc3c2=O)cc1Cl	–	inactive: -10.8%
